Measurements: the supplement of paper PMC12823440, “Inhibitors supercharge kinase turnover through native proteolytic circuits” (Nature, 2025)
This is one part of the list. The calls rarely recur for the same compound in another form.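 In K562 cells expressing nanoluciferase-fused kinases, luminescence was recorded at 4 h intervals between 2 and 18 h, normalized as percent of control with DMSO at 100% and a positive control at 0%. A significant (2 sigma) signal drop marks a time point as decreased. The authors' rule for a hit is not shown and takes in more than the number of time points.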

Chains of the proteins cited; added tags and fusions are not shown. Lines headed by an entry give the natural chain unless they say otherwise; changes in a name come on top.
UniProt P07949, whole entry, looked up: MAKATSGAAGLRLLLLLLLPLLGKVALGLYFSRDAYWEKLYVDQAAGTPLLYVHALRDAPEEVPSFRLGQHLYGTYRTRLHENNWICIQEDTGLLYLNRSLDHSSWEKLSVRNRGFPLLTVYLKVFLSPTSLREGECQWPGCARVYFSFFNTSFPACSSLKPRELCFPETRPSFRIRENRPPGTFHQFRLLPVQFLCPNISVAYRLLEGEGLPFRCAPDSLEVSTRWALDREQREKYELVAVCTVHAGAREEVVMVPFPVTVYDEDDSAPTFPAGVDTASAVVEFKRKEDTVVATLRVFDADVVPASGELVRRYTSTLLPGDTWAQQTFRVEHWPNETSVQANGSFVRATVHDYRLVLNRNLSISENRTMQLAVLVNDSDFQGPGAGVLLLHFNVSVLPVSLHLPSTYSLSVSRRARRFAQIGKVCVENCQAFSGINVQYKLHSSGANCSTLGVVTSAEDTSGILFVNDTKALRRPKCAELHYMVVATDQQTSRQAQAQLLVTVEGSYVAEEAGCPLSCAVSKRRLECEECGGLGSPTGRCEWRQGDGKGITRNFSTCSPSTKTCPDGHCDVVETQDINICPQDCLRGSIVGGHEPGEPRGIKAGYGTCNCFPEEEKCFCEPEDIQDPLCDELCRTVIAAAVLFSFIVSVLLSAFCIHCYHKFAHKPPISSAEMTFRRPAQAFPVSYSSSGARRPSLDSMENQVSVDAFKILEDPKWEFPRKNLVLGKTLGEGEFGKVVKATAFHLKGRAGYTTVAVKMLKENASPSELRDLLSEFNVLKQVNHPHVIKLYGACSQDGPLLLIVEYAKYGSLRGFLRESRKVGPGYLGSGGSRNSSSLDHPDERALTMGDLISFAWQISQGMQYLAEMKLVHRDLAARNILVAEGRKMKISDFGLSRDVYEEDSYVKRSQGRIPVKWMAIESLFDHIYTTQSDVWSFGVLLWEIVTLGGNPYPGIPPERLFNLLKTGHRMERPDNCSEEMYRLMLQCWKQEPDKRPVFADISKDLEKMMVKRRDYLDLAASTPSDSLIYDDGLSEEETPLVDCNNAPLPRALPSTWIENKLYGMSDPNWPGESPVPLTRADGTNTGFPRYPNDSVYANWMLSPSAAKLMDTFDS
UniProt P07949, whole entry M918T, looked up: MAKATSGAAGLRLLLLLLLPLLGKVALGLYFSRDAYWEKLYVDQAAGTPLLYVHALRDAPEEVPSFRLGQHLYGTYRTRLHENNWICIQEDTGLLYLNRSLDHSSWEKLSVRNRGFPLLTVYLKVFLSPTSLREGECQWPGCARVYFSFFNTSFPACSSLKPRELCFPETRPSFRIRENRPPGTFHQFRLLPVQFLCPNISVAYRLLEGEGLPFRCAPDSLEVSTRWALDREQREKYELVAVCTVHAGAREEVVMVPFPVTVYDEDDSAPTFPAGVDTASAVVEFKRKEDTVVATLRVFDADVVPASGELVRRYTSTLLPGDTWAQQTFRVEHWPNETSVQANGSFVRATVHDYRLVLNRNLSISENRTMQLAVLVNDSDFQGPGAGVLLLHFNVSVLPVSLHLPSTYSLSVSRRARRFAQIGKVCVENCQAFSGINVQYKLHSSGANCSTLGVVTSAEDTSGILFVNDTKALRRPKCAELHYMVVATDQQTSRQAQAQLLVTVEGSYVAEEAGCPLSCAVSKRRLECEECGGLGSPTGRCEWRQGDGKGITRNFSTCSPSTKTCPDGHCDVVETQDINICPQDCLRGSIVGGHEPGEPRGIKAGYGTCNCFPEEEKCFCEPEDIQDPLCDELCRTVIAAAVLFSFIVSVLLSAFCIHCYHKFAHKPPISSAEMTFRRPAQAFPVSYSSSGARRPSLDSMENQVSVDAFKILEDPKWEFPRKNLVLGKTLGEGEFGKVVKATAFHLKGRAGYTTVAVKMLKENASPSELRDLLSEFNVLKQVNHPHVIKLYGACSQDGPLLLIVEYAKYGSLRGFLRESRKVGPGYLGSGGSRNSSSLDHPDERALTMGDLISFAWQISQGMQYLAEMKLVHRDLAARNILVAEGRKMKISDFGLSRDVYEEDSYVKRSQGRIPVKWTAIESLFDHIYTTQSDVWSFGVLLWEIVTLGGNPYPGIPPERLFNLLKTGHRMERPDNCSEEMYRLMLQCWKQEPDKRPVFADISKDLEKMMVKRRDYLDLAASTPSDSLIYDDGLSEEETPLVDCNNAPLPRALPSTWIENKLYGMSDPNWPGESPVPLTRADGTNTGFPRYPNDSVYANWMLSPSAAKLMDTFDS
UniProt Q9BRS2: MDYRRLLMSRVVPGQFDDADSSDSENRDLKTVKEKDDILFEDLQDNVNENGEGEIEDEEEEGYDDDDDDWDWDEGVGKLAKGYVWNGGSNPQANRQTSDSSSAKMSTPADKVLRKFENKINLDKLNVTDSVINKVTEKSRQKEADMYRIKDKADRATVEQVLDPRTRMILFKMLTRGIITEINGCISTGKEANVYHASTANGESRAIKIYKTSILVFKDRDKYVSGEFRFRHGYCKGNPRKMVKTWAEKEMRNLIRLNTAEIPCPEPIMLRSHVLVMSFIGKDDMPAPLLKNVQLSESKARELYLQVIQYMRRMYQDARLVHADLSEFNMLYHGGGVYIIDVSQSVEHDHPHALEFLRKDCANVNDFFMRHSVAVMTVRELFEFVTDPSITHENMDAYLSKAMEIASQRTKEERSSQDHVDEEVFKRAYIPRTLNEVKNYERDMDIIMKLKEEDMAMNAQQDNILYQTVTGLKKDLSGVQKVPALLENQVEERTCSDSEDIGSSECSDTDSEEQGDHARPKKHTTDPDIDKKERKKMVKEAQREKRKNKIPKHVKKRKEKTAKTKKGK
UniProt Q01974, whole entry: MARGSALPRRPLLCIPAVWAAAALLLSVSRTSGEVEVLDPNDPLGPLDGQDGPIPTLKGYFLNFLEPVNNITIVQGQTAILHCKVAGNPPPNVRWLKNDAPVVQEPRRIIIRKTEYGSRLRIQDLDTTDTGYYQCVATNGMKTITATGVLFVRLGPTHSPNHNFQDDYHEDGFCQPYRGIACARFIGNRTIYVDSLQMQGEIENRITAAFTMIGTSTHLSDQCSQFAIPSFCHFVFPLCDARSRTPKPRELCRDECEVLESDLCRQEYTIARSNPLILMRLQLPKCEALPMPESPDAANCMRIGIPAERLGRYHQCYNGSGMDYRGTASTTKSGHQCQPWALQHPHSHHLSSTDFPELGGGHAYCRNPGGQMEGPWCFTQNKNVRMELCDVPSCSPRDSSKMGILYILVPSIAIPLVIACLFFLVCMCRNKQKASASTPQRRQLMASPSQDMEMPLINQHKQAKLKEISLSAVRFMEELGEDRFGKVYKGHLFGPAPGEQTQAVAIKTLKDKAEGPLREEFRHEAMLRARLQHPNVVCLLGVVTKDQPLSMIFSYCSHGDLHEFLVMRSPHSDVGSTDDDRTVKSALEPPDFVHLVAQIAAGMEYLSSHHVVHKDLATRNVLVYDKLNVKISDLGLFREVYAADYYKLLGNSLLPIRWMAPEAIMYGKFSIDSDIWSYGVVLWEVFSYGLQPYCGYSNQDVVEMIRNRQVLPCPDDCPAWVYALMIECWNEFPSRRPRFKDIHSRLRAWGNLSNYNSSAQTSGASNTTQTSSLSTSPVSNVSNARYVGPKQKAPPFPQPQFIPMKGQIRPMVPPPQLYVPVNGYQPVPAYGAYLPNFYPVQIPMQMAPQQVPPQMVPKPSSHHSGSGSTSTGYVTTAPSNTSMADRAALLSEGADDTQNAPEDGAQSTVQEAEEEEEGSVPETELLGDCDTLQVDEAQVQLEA
UniProt Q15418, whole entry: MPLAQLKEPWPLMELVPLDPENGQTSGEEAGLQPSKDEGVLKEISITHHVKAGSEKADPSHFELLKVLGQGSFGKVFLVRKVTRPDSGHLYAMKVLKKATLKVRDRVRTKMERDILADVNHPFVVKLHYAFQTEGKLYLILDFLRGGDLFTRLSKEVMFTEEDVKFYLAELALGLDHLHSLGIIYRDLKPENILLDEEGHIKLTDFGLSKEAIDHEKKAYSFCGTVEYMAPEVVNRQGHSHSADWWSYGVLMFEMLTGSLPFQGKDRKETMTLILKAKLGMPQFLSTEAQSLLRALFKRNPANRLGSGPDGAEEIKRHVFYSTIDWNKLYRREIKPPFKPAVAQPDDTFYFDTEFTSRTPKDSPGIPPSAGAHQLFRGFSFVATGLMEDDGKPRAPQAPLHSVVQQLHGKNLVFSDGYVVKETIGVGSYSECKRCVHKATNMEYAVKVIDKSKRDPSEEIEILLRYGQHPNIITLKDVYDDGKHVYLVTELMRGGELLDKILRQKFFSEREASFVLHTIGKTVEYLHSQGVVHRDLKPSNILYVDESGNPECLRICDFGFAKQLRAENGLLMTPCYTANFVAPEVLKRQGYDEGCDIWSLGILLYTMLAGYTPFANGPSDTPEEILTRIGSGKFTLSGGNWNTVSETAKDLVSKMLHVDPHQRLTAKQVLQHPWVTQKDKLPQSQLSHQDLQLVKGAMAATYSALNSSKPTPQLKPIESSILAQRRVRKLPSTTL
UniProt Q9NYA1, whole entry: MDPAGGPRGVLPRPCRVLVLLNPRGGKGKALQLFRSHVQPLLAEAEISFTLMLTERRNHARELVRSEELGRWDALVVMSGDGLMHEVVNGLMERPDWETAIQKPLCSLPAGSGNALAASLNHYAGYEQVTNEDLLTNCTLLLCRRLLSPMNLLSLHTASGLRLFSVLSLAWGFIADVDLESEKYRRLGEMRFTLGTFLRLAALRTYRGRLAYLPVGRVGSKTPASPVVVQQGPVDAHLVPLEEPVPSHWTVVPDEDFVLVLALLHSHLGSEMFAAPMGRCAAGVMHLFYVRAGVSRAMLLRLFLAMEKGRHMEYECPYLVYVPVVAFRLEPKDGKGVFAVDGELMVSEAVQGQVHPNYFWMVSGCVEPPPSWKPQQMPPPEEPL
UniProt Q9Y6E0: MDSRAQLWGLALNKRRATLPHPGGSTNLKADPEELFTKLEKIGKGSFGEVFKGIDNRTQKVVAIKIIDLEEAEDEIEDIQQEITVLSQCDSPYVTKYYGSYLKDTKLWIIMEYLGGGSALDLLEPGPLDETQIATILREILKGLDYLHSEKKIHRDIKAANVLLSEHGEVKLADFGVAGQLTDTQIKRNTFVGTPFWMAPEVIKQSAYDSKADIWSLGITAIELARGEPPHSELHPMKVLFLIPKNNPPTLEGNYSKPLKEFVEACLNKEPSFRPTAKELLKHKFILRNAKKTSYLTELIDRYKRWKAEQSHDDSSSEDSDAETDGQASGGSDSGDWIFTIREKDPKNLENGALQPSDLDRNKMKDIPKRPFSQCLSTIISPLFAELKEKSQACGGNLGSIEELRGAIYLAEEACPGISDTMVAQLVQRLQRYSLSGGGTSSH
UniProt Q6PHR2: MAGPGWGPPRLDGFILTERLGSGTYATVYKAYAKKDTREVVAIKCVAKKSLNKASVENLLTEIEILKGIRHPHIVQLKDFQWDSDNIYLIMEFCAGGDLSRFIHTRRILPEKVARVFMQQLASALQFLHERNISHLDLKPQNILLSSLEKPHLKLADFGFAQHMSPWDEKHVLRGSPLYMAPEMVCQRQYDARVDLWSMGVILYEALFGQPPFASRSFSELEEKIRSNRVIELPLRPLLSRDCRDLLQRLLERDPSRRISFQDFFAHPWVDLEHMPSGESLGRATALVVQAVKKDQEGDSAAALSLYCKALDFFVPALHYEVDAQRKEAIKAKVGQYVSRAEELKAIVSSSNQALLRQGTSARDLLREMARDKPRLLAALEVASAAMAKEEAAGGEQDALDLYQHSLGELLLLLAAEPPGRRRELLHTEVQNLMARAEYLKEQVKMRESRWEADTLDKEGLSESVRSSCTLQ
UniProt P43403: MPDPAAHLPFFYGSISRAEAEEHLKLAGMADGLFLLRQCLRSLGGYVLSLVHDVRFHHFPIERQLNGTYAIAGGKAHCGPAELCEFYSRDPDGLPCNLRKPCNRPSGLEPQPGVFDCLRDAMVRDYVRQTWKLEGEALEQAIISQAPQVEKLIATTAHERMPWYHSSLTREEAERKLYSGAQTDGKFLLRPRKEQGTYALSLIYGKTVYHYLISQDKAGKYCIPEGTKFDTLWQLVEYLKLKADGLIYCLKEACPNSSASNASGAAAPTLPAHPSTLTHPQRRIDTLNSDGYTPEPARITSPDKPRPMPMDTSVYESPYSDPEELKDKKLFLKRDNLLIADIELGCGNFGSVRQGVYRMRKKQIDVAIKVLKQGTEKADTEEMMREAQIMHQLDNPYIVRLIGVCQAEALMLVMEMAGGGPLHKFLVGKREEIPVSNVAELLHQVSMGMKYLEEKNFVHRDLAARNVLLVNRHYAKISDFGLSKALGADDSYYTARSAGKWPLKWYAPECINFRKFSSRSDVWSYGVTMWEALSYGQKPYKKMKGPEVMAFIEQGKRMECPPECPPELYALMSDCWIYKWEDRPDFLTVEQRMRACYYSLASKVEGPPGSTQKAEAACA

How the values were obtained:
Details in all cases: K562, 2-18 h
RET = RET (UniProt P07949); test: kinase-Nluc reporter destabilization hit call (1 = scored as downregulated) (binary); higher = compound decreases kinase abundance
[1] = biological target: RET_M918T (clone: RET_mut) (UniProt P07949); test: as above
RIOK1 = RIOK1 (UniProt Q9BRS2); test: as above
RIPK1 = RIPK1 (UniProt Q13546); test: as above
RIPK2 = RIPK2 (UniProt O43353); test: as above
ROR2 = ROR2 (UniProt Q01974); test: as above
RPS6KA1 = RPS6KA1 (UniProt Q15418); test: as above
SPHK1 = SPHK1 (UniProt Q9NYA1); test: as above
SRC = SRC (UniProt P12931); test: as above
STK24 = STK24 (UniProt Q9Y6E0); test: as above
STK38 = STK38 (UniProt Q15208); test: as above
SYK = SYK (UniProt P43405); test: as above
TEC = TEC (UniProt P42680); test: as above
TYK2 = TYK2 (UniProt P29597); test: as above
ULK3 = ULK3 (UniProt Q6PHR2); test: as above
YES1 = YES1 (UniProt P07947); test: as above
ZAK = ZAK (UniProt Q9NYL2); test: as above
ZAP70 = ZAP70 (UniProt P43403); test: as above
CDK4 = CDK4 (UniProt P11802); test: number of time points (of 4; 2 h point missing) at which kinase-Nluc abundance scored as decreased, DMSO-normalised (count); higher = more persistent destabilization
CDK7 = CDK7 (UniProt P50613); test: as above

COC(=O)[C@H](CC(C)C)NC(=O)c1ccc(NC[C@@H](N)CS)cc1-c1cccc2ccccc12 [GGTI298 (Trifluoroacetate)]
inactive: kinase-Nluc reporter destabilization hit call (RET; 10 µM) 0 | kinase-Nluc reporter destabilization hit call ([1]; 10 µM) 0 | kinase-Nluc reporter destabilization hit call (RIOK1; 10 µM) 0 | kinase-Nluc reporter destabilization hit call (RIPK1; 10 µM) 0 | kinase-Nluc reporter destabilization hit call (RIPK2; 10 µM) 0 | kinase-Nluc reporter destabilization hit call (ROR2; 10 µM) 0 | kinase-Nluc reporter destabilization hit call (RPS6KA1; 10 µM) 0 | kinase-Nluc reporter destabilization hit call (SPHK1; 10 µM) 0 | kinase-Nluc reporter destabilization hit call (SRC; 10 µM) 0 | kinase-Nluc reporter destabilization hit call (STK24; 10 µM) 0 | kinase-Nluc reporter destabilization hit call (STK38; 10 µM) 0 | kinase-Nluc reporter destabilization hit call (SYK; 10 µM) 0 | kinase-Nluc reporter destabilization hit call (TEC; 10 µM) 0 | kinase-Nluc reporter destabilization hit call (TYK2; 10 µM) 0 | kinase-Nluc reporter destabilization hit call (ULK3; 10 µM) 0 | kinase-Nluc reporter destabilization hit call (YES1; 10 µM) 0 | kinase-Nluc reporter destabilization hit call (ZAK; 10 µM) 0 | kinase-Nluc reporter destabilization hit call (ZAP70; 10 µM) 0
0: number of time points (CDK4; 10 µM) | number of time points (CDK7; 10 µM)

Cc1cccc(/C=N/Nc2cc(N3CCOCC3)nc(OCCc3ccccn3)n2)c1 [Apilimod (mesylate)]
0: number of time points (CDK4; 10 µM)
1: number of time points (CDK7; 10 µM)
inactive: kinase-Nluc reporter destabilization hit call (RET; 10 µM) 0 | kinase-Nluc reporter destabilization hit call ([1]; 10 µM) 0 | kinase-Nluc reporter destabilization hit call (RIOK1; 10 µM) 0 | kinase-Nluc reporter destabilization hit call (RIPK1; 10 µM) 0 | kinase-Nluc reporter destabilization hit call (RIPK2; 10 µM) 0 | kinase-Nluc reporter destabilization hit call (ROR2; 10 µM) 0 | kinase-Nluc reporter destabilization hit call (RPS6KA1; 10 µM) 0 | kinase-Nluc reporter destabilization hit call (SPHK1; 10 µM) 0 | kinase-Nluc reporter destabilization hit call (SRC; 10 µM) 0 | kinase-Nluc reporter destabilization hit call (STK24; 10 µM) 0 | kinase-Nluc reporter destabilization hit call (STK38; 10 µM) 0 | kinase-Nluc reporter destabilization hit call (SYK; 10 µM) 0 | kinase-Nluc reporter destabilization hit call (TEC; 10 µM) 0 | kinase-Nluc reporter destabilization hit call (TYK2; 10 µM) 0 | kinase-Nluc reporter destabilization hit call (ULK3; 10 µM) 0 | kinase-Nluc reporter destabilization hit call (YES1; 10 µM) 0 | kinase-Nluc reporter destabilization hit call (ZAP70; 10 µM) 0

COc1ccc2c(c1)C(c1ccc(F)cc1)=C(CN1CCCC1)CO2
inactive: kinase-Nluc reporter destabilization hit call (RET; 10 µM) 0 | kinase-Nluc reporter destabilization hit call ([1]; 10 µM) 0 | kinase-Nluc reporter destabilization hit call (RIOK1; 10 µM) 0 | kinase-Nluc reporter destabilization hit call (RIPK1; 10 µM) 0 | kinase-Nluc reporter destabilization hit call (RIPK2; 10 µM) 0 | kinase-Nluc reporter destabilization hit call (ROR2; 10 µM) 0 | kinase-Nluc reporter destabilization hit call (RPS6KA1; 10 µM) 0 | kinase-Nluc reporter destabilization hit call (SPHK1; 10 µM) 0 | kinase-Nluc reporter destabilization hit call (SRC; 10 µM) 0 | kinase-Nluc reporter destabilization hit call (STK24; 10 µM) 0 | kinase-Nluc reporter destabilization hit call (STK38; 10 µM) 0 | kinase-Nluc reporter destabilization hit call (SYK; 10 µM) 0 | kinase-Nluc reporter destabilization hit call (TEC; 10 µM) 0 | kinase-Nluc reporter destabilization hit call (TYK2; 10 µM) 0 | kinase-Nluc reporter destabilization hit call (ULK3; 10 µM) 0 | kinase-Nluc reporter destabilization hit call (YES1; 10 µM) 0 | kinase-Nluc reporter destabilization hit call (ZAK; 10 µM) 0 | kinase-Nluc reporter destabilization hit call (ZAP70; 10 µM) 0
0: number of time points (CDK4; 10 µM) | number of time points (CDK7; 10 µM)

C=CC(=O)Nc1cc2c(Nc3ccc(F)c(Cl)c3)ncnc2cc1C#CC(C)(C)N1CCN(C)CC1 [AV-412 (free base)]
inactive: kinase-Nluc reporter destabilization hit call (RET; 2.5 µM) 0 | kinase-Nluc reporter destabilization hit call ([1]; 2.5 µM) 0 | kinase-Nluc reporter destabilization hit call (RIOK1; 2.5 µM) 0 | kinase-Nluc reporter destabilization hit call (RIPK1; 2.5 µM) 0 | kinase-Nluc reporter destabilization hit call (RIPK2; 2.5 µM) 0 | kinase-Nluc reporter destabilization hit call (ROR2; 2.5 µM) 0 | kinase-Nluc reporter destabilization hit call (RPS6KA1; 2.5 µM) 0 | kinase-Nluc reporter destabilization hit call (SPHK1; 2.5 µM) 0 | kinase-Nluc reporter destabilization hit call (SRC; 2.5 µM) 0 | kinase-Nluc reporter destabilization hit call (STK24; 2.5 µM) 0 | kinase-Nluc reporter destabilization hit call (STK38; 2.5 µM) 0 | kinase-Nluc reporter destabilization hit call (SYK; 2.5 µM) 0 | kinase-Nluc reporter destabilization hit call (TEC; 2.5 µM) 0 | kinase-Nluc reporter destabilization hit call (TYK2; 2.5 µM) 0 | kinase-Nluc reporter destabilization hit call (ULK3; 2.5 µM) 0 | kinase-Nluc reporter destabilization hit call (YES1; 2.5 µM) 0 | kinase-Nluc reporter destabilization hit call (ZAK; 2.5 µM) 0 | kinase-Nluc reporter destabilization hit call (ZAP70; 2.5 µM) 0
0: number of time points (CDK4; 2.5 µM)
2: number of time points (CDK7; 2.5 µM)

C[C@@H](N)[C@H]1CC[C@H](C(=O)Nc2ccncc2)CC1
0: number of time points (CDK4; 10 µM) | number of time points (CDK7; 10 µM)
inactive: kinase-Nluc reporter destabilization hit call (RIOK1; 10 µM) 0 | kinase-Nluc reporter destabilization hit call (RIPK1; 10 µM) 0 | kinase-Nluc reporter destabilization hit call (RIPK2; 10 µM) 0 | kinase-Nluc reporter destabilization hit call (ROR2; 10 µM) 0 | kinase-Nluc reporter destabilization hit call (RPS6KA1; 10 µM) 0 | kinase-Nluc reporter destabilization hit call (SPHK1; 10 µM) 0 | kinase-Nluc reporter destabilization hit call (SRC; 10 µM) 0 | kinase-Nluc reporter destabilization hit call (STK24; 10 µM) 0 | kinase-Nluc reporter destabilization hit call (STK38; 10 µM) 0 | kinase-Nluc reporter destabilization hit call (SYK; 10 µM) 0 | kinase-Nluc reporter destabilization hit call (TEC; 10 µM) 0 | kinase-Nluc reporter destabilization hit call (TYK2; 10 µM) 0 | kinase-Nluc reporter destabilization hit call (ULK3; 10 µM) 0 | kinase-Nluc reporter destabilization hit call (YES1; 10 µM) 0 | kinase-Nluc reporter destabilization hit call (ZAP70; 10 µM) 0
